# The full ranking holds about 33,000 sequences; the median of “E-score (-0.5 to 0.5)” is about -0.016, and the highest 2% start at about 0.3. The list shows a part of the results.
# Biological target: T1, Yer184c (UniProt P39961)
# T1 sequence: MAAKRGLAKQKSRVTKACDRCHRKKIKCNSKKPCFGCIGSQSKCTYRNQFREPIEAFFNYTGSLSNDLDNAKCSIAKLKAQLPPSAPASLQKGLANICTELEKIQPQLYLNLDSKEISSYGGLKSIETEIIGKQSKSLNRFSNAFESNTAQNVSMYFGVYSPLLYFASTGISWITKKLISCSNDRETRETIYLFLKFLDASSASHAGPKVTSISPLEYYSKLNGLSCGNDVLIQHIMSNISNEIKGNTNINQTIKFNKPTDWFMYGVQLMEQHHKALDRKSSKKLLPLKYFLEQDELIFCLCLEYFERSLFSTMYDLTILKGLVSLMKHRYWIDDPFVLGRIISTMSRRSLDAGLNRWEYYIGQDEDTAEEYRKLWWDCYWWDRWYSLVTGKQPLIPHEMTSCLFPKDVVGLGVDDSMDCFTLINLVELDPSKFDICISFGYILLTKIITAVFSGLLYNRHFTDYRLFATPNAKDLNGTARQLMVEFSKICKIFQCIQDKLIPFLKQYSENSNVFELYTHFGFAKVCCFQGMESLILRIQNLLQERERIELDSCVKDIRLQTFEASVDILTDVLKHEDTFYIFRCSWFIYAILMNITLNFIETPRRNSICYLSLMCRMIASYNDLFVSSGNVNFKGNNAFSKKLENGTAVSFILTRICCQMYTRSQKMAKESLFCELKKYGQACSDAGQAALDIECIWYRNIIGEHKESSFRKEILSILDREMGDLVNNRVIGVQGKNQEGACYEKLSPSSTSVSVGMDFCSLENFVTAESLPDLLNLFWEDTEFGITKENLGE
# Experiment: PBM E-score (8-mer binding enrichment) (E-score (-0.5 to 0.5)); higher = stronger / more preferred TF binding
# Settings: protein concentration: 100 nM; construct: GST-full length
# How it was run: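 Yeast transcription factors, full-length or as DNA-binding domains, were expressed with a GST tag using PURExpress in vitro transcription/translation. At about 100-200 nM they were applied to universal all-10-mer Agilent arrays, double-stranded by primer extension on fresh or once-stripped slides. Fluorescent anti-GST detected bound protein, and masliner normalised the scans. E-scores for ungapped eight-base words, pooled with reverse complements, came from the Universal PBM Analysis Suite.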
row,Sequence,PBM E-score
1,AAGTAGAG,0.00608
2,GGGCTGAC,-0.0867
3,TAAAATGA,0.171
4,CCAGTGGC,-0.176
5,AAGGTCGG,-0.018
6,AATAAGTG,-0.0698
7,AGCTTCTA,-0.0703
8,CCCACTAA,-0.0657
9,ACACATCT,-0.0415
10,AGAAATGA,0.249
11,TACCAGAA,0.145
12,ATGACCCC,-0.164
13,CGTTCGAC,-0.144
14,ACCGACTC,-0.017
15,GCTTTCCC,0.014
16,CTTGTACC,-0.138
17,CGGGTGTA,0.0244
18,TACAGCGA,-0.029
19,AAATGGCT,-0.0786
20,ATTCAATG,0.0832
21,AAGGTTAC,-0.0291
22,ACTACTAC,0.0312
23,ATCGTCTC,0.0156
24,TGCATGCA,0.161

row,Sequence,PBM E-score
1,AGCTCGTA,-0.0314
2,CGTGGCAC,0.0175
3,CAGAGTCC,0.0568
4,GAATCCTC,-0.299
5,CCCAGCTC,-0.222
6,CCCTAGCC,-0.165
7,ACGTACAA,0.103
8,CTTTAGGC,-0.122
9,GCCCGGCA,0.271
10,CTCAACGA,-0.088
11,ATGACGCA,-0.116
12,ATGGGAGG,-0.213
13,CCTCGTAG,-0.11
14,GTACTTGA,-0.116
15,CGCGGCAA,0.274
16,ACTACATG,0.0213
17,ATTTCATA,0.234
18,GTCAGGCA,-0.127
19,ACAAAGAG,-0.0549
20,CAGTCGGC,0.057
21,ATCTACGG,0.186
22,CGGATACG,0.247
23,CCAGCCAA,-0.0674
24,AGCTCACT,-0.187

# Part of the list above in another layout.
row	Sequence	PBM E-score
18	TACAGCGA	-0.029
19	AAATGGCT	-0.0786
20	ATTCAATG	0.0832
21	AAGGTTAC	-0.0291
22	ACTACTAC	0.0312
23	ATCGTCTC	0.0156
24	TGCATGCA	0.161
1	AGCTCGTA	-0.0314
2	CGTGGCAC	0.0175
3	CAGAGTCC	0.0568
4	GAATCCTC	-0.299
5	CCCAGCTC	-0.222
6	CCCTAGCC	-0.165
7	ACGTACAA	0.103
8	CTTTAGGC	-0.122
9	GCCCGGCA	0.271

# Continuation.

row,Sequence,PBM E-score
1,AGTTCGTG,0.054
2,CGTTGCTA,-0.0272
3,CTTAACGA,0.0703
4,CGTGTTGA,0.166
5,AGCTATCG,-0.0905
6,AGACATAG,0.0496
7,TCAATGAA,-0.00441
8,AGCGGCTA,0.0888
9,ATTGCGCC,0.0297
10,AGGTTAGC,-0.298
11,AGAACACA,-0.118
12,CGAACATA,0.0782
13,CTATGTGA,-0.116
14,CAGTCAAG,-0.0942
15,GGATCCCA,-0.0926
16,TAGACCAA,0.08
17,GCACCTAC,-0.139
18,CAGTGATG,-0.196
19,AAAAAATC,0.208
20,GGGGGGAC,-0.445
21,CCGCTGAG,0.111
22,ACTTGGAC,0.0938
23,ACCTTCTC,-0.0408
24,ACCTGCCG,0.0235

# — the supplement of paper PMC3334620
